The source of these data is the supplement of paper PMC10849652.

Amino acid sequences for entries named in this document (tags omitted). A change or cut given only in a name is not applied to a line headed by its entry.
UniProt Q9ULX9: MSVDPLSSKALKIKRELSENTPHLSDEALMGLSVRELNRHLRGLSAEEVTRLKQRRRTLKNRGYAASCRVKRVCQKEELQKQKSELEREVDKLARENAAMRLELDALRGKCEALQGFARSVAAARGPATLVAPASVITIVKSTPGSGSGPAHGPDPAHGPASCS
UniProt Q9HD34: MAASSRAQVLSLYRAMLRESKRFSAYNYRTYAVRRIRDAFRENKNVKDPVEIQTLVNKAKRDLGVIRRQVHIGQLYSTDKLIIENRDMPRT
UniProt Q8IWC1: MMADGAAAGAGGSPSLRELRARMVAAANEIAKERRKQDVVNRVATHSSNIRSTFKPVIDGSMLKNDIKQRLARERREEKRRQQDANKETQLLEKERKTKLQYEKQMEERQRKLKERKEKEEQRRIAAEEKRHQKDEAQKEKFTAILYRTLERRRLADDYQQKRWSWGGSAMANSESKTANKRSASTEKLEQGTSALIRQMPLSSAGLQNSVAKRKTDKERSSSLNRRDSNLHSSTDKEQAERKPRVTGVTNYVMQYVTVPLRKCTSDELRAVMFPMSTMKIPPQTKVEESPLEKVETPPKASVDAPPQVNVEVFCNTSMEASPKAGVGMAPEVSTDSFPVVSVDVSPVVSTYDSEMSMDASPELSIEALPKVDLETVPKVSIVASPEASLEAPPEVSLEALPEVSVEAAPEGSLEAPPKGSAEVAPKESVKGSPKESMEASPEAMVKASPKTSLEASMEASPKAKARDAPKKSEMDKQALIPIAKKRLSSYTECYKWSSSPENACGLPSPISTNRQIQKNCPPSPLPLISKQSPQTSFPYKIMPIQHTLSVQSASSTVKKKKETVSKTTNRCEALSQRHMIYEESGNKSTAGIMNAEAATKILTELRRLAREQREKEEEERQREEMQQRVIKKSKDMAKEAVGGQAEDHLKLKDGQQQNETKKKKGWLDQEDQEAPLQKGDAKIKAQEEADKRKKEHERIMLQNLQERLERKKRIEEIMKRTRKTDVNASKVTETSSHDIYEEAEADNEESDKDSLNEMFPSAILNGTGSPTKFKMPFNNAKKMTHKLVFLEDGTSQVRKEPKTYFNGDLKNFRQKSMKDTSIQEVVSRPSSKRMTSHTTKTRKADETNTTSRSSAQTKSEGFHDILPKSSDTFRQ
UniProt Q15013: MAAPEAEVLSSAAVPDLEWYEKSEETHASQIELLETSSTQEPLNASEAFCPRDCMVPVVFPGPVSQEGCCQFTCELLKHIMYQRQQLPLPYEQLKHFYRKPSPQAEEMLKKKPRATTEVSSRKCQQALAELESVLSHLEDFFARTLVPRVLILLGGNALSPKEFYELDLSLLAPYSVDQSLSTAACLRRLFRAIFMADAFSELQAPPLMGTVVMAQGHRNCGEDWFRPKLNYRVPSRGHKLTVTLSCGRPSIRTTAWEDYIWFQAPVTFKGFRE
UniProt Q8N5G2: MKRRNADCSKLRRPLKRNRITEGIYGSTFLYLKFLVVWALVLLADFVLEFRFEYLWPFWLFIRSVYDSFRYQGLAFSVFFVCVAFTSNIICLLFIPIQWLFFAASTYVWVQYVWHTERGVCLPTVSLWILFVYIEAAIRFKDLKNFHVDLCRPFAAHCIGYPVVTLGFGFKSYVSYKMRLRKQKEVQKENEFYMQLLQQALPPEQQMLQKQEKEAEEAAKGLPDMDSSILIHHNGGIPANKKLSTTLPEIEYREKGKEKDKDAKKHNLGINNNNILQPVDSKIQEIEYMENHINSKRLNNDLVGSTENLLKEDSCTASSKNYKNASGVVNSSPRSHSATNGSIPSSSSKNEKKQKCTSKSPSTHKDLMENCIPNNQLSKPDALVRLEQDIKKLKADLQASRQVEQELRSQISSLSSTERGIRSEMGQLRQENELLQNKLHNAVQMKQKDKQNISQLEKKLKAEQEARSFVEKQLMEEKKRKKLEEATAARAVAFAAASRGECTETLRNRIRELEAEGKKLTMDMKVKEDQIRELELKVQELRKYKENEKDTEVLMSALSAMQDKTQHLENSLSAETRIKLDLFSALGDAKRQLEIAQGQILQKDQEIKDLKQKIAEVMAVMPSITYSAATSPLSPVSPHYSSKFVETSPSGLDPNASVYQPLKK
UniProt Q02779: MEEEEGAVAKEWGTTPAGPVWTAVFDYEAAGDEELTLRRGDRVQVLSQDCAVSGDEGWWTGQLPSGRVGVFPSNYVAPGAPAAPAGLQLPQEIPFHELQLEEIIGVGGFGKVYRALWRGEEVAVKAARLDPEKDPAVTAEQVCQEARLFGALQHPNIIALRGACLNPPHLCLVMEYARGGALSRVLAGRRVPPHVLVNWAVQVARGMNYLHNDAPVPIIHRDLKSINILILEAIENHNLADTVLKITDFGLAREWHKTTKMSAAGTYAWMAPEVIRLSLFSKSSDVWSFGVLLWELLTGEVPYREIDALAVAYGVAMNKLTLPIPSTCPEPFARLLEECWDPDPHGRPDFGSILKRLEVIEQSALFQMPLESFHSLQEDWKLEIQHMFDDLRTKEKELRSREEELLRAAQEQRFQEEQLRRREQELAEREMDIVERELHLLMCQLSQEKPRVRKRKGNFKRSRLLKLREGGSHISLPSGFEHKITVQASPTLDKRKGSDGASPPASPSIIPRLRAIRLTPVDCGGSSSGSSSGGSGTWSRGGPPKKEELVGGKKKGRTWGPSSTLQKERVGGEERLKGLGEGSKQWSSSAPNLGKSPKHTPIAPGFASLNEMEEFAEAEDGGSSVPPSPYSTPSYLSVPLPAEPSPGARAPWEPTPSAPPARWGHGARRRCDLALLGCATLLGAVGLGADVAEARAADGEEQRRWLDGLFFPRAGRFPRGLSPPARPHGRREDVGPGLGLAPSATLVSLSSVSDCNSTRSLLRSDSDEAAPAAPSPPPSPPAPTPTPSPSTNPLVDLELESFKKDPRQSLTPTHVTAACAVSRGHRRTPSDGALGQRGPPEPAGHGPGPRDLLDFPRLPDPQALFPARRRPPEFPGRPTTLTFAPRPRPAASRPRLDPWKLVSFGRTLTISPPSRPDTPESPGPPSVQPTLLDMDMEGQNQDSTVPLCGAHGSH
UniProt Q16659, whole entry, looked up: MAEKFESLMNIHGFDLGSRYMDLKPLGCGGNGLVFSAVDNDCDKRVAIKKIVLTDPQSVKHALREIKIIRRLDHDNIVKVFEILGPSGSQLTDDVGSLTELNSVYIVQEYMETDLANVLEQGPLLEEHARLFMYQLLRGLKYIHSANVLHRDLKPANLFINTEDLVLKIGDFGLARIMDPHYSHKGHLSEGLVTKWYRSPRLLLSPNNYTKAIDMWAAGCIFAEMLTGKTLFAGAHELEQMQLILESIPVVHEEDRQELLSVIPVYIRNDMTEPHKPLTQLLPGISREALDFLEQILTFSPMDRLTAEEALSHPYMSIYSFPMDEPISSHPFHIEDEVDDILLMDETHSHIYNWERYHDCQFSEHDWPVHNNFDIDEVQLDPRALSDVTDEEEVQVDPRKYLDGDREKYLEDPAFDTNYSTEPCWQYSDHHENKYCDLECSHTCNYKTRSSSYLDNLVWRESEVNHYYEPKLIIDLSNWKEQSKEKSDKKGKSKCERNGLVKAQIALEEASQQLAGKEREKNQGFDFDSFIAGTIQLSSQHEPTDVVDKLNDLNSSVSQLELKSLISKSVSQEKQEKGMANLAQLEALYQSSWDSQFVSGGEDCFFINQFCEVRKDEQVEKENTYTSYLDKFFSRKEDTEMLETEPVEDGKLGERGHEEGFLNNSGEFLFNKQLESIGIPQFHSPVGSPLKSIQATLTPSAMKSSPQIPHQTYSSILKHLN
UniProt P36941: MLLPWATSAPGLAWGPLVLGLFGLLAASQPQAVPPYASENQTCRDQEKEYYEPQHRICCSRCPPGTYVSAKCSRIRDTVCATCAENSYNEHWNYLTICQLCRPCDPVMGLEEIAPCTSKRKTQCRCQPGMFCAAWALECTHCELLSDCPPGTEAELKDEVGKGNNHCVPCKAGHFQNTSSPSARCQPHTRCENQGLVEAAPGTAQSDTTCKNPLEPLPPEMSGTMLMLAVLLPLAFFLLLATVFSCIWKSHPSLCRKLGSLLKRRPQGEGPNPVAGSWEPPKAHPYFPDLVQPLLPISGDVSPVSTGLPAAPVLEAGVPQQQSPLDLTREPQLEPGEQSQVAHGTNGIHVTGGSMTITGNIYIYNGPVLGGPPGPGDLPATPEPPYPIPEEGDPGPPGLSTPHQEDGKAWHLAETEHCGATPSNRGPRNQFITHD
UniProt Q6NSJ5: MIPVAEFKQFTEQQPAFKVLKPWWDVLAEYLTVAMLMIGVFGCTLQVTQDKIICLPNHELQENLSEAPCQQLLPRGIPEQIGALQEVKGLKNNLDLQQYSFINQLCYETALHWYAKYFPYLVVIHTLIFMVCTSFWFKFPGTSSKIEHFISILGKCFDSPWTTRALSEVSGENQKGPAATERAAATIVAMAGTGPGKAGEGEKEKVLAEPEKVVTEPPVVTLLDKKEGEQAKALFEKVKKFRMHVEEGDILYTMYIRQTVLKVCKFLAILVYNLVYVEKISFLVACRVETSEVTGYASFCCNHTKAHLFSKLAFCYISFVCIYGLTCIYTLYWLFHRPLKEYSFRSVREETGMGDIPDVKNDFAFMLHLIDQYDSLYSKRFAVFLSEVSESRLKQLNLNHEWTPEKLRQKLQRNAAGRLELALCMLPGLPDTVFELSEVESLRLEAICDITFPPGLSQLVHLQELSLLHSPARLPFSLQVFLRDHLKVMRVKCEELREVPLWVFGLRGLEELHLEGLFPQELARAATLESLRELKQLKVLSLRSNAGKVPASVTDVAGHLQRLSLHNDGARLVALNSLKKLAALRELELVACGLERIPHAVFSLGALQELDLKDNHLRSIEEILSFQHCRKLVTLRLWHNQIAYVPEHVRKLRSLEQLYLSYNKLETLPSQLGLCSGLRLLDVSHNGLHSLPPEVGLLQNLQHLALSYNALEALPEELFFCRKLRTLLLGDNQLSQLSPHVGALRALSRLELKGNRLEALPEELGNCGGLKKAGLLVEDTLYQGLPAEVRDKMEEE
UniProt Q969L4: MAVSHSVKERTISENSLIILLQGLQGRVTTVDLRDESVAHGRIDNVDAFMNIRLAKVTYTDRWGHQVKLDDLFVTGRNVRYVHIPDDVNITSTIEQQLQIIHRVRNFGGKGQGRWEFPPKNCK
UniProt Q12851: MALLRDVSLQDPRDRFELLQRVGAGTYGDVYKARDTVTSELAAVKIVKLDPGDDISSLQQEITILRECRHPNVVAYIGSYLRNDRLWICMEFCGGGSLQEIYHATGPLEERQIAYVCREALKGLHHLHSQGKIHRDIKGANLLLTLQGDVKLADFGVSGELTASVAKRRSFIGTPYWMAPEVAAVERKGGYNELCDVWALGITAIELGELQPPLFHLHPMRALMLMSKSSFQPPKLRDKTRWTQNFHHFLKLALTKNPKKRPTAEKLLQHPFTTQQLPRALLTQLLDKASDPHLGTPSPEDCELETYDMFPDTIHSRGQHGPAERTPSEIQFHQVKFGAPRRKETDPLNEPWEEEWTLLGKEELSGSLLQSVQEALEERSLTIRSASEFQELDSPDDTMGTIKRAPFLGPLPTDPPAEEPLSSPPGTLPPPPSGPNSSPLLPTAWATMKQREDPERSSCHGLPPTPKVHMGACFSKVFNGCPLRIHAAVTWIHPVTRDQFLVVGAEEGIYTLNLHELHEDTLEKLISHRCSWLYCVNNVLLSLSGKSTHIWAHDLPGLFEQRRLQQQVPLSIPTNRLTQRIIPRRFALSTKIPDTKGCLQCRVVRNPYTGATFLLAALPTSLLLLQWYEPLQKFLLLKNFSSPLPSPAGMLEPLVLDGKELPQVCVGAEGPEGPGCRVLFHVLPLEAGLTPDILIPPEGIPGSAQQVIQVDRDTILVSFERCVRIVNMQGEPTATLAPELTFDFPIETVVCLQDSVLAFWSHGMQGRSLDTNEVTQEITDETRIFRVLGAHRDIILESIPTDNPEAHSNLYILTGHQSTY
UniProt Q9UFC0: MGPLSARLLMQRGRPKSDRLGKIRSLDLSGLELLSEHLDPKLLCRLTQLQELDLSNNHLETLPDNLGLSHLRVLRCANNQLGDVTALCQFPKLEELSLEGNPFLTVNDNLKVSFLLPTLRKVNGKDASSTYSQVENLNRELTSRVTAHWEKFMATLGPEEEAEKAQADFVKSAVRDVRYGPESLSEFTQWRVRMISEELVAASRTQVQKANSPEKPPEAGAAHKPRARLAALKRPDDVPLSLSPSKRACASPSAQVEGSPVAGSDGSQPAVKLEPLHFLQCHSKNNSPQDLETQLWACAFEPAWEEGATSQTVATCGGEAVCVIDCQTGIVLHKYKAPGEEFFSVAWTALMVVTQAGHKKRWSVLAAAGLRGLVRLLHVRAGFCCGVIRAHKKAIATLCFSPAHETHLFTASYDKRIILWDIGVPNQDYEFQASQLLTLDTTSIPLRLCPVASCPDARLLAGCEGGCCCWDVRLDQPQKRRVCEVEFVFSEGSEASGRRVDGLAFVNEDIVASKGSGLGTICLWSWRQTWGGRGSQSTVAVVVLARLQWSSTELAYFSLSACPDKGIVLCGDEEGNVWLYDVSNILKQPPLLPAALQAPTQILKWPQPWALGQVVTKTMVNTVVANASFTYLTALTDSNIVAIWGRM

The list shows a part of the results.

Compound in this assay: Cc1ccc(NC(=O)c2ccc(CN3CC[C@H](N(C)C)C3)c(C(F)(F)F)c2)cc1Nc1nccc(-c2cncnc2)n1 [bafetinib]
As to the kind of experiment: log2 fold change, soluble protein after heating vs DMSO (PISA); higher = thermal stabilisation; K562 cells, 10 uM, 30 min; active = over 0.2 and 3.5 SD of the protein, either way, in both replicates (recomputed). The gist of the method:
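Aliquots of K562 cells (2×10^6 cells/mL) treated with 10 μM compound for 30 min were heated for 3 min over 48°C-58°C. After pooling and extraction in PBS with 0.5% NP-40 at 4°C, soluble protein from a 21,000xg, 90 min spin was quantified by TMTpro 16plex LC-MS/MS with channel sums equalised. Thermal stability is expressed against control samples, from duplicates, as a log2 fold change.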
In the case of MANEA (UniProt Q5SRI9), the log2 fold change was inactive: 0.06.
On to LSM5 (UniProt Q9Y4Y9), for which the log2 fold change is inactive: 0.109.
In the case of LYL1 (UniProt P12980) it was inactive: -0.151; in that of MARK2 (UniProt E9PC69), inactive: 0.116.
In the case of LSM8 (UniProt O95777) it was inactive: -0.002; in that of MAFF (UniProt Q9ULX9), inactive: -0.07; in that of MAN2B2 (UniProt Q9Y2E5), inactive: -0.302.
As for MAPK1 (UniProt P28482), the figure is inactive: -0.027; as for LSM6 (UniProt P62312), inactive: -0.019; as for LYSMD3 (UniProt Q7Z3D4), inactive: -0.127.
Take MADD isoform 2 (UniProt Q8WXG6): the log2 fold change is inactive: 0.071.
As for LYRM4 (UniProt Q9HD34), the figure is inactive: -0.016; as for MAP7D3 (UniProt Q8IWC1), inactive: 0.346.
In the case of LYN (UniProt P07948) it was inactive: 0.26.
Consider MAP11 (UniProt Q8WVR3), for which the log2 fold change was inactive: 0.053.
Regarding LYST (UniProt Q99698), the log2 fold change is inactive: -0.27.
Regarding MAD2L1BP isoform 3 (UniProt Q15013), the log2 fold change was inactive: 0.013.
Regarding MACO1 (UniProt Q8N5G2), the log2 fold change is inactive: -0.003.
As for LYZ (UniProt P61626), the figure is inactive: 0.958.
On to MAP4K5 (UniProt Q9Y4K4), for which the log2 fold change was inactive: -0.064.
As for MAP3K10 (UniProt Q02779), the figure is inactive: -0.059.
As for MAPK6 (UniProt Q16659), the figure is inactive: 0.106.
In the case of LTBR (UniProt P36941) it was inactive: -0.046; in that of LRRC8E (UniProt Q6NSJ5), inactive: 0.098.
In the case of MAP3K2 (UniProt Q9Y2U5), the log2 fold change is inactive: -0.016.
As for LRRC8B (UniProt Q6P9F7), the figure is inactive: 0.117.
In the case of MAP3K4 isoform 2 (UniProt Q9Y6R4), the log2 fold change is inactive: -0.059.
As for LSM10 (UniProt Q969L4), the figure is inactive: 0.132; as for MAD1L1 (UniProt Q9Y6D9), inactive: 0.047; as for MAP4K2 (UniProt Q12851), inactive: -0.116.
In the case of MAGEA1 (UniProt P43355) it was inactive: 0.076; in that of MAP3K20 (UniProt Q9NYL2), active: -0.246.
As for LRWD1 (UniProt Q9UFC0), the figure is inactive: 0.114.
